In paper PMC10602909 one finds binding data, which are given here for one substance.

Amino acid sequences for entries named in this document (tags omitted). Residues count along the entry.
UniProt Q5JVG8, residues 1-75: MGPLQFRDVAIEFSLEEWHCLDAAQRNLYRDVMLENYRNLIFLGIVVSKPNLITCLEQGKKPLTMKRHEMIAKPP
UniProt Q13263: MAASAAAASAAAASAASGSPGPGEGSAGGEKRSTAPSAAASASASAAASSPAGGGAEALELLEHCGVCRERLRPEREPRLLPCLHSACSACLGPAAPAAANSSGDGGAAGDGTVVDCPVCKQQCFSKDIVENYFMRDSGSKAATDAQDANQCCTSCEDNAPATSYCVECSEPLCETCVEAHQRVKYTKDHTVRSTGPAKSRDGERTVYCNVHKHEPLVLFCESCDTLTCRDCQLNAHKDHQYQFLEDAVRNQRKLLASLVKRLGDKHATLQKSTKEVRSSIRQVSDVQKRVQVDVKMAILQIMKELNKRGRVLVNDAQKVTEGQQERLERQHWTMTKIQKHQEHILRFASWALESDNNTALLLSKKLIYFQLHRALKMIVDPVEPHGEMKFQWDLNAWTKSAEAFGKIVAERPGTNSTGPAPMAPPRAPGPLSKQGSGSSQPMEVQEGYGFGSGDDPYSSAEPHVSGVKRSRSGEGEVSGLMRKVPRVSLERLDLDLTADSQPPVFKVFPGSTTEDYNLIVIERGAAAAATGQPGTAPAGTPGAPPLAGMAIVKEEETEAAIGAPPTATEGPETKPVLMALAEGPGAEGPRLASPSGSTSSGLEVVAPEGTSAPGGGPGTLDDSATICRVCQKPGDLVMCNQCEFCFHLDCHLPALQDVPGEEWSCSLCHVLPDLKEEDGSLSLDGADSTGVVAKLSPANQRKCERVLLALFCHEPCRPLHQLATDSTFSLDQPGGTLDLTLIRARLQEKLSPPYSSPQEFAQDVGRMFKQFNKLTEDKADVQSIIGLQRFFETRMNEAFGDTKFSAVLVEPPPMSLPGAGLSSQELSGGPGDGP

For this experiment, the target named is FLAG-tagged ZNF506-KRAB domain (amino acids 1-75) (human) (UniProt Q5JVG8). As to the kind of experiment: co-IP; 293T cells co-transfected with FLAG-ZNF506-KRAB, HA-SETDB1 and Myc-KAP1 plasmids, 48 h; extracts in RIPA buffer or IP buffer (20 mM Tris pH 7.5, 150 mM NaCl, 1% Triton X-100); protein A/G magnetic beads cross-linked with anti-HA, anti-FLAG or anti-Myc antibodies, 4°C overnight; washed three times with BC150 buffer; western blotting.

No constants are given. Whether binding was seen depends on the method and setting. Binding seen in cells or lysates may run through a third protein. Some entries that bind do so weakly or less than the wild type.

As for “Myc-tagged KAP1 (from UniProt Q13263 1-835)”, the binding result is on record as “binds”.
